This is an account of results in US20210393807A1, “PHOTOACOUSTIC VOLTAGE-SENSITIVE DYES FOR IN VIVO IMAGING” (The Johns Hopkins University, priority 2016, published 2021).

Data set [1] is described as follows: Spectrophotometric measurements of near-infrared VSD in lipid vesicle phantom. The data set is classed as physicochemical. From the text:
2.5.1 Photoacoustic imaging setup. For the recording of electrophysiological brain activities in vivo, an ultrasound research system was utilized that consisted of ultrasound array transducer (L 14-5/38) connected to a real-time data acquisition system (SonixDAQ, Ultrasonix Medical Corp., Canada). To induce the PA signals, pulsed laser light was generated by a second-harmonic (532 nm) Nd:YAG laser pumping an optical parametric oscillator (OPO) system (Phocus Inline, Opotek Inc., USA). The tunable range of the laser system was 690-900 nm and the maximum pulse repetition frequency was 20 Hz. The laser pulse was delivered into the probe through bifurcated fiber optic bundles, each 40 mm long and 0.88 mm wide. The PA probe was located at around the Interaural 11.2 mm and Bregma 2.2 mm to obtain the cross-section of motor cortexes (FIG. 15). […]
Otherwise, 2.5 μL of 1 mM gramicidin, a nonspecific monovalent cation ionophore, enables Na+ cations to move from outside to inside of vesicle membranes to short circuit the membrane potential (depolarized state). From these controls, our near-infrared VSD positively charged can move in and out through the vesicle membrane, leading to the change in fluorescence quenching depending on their aggregation status.

Data set [2] can be described thus: Spectrophoto/fluorometric characterization of PA-VSD in lipid vesicle suspension (valinomycin/gramicidin). The data set is classed as physicochemical. The protocol: Lipid vesicles were prepared from 25-mg soybean phosphatidylcholine (type II) suspended in 1 mL of K^+ buffer, which contains 100 mM K2SO4 and 20 mM HEPES. […] A Na^+ buffer containing 100 mM Na2SO4 and 20 mM HEPES was prepared. During experiments, 10 μL of vesicle suspension was added to 1 mL of Na^+ buffer, resulting in an approximately 100:1 K^+ gradient across vesicle membrane. VSD was added to this suspension. When 2.5 μL of 10 μM valinomycin—a K^+ specific ionophore—was added, K^+ ions were transported from inside to outside of vesicle membranes, resulting in a negative membrane potential. This negative potential drives the positively charged VSDs into the vesicles, which causes aggregation of dyes and quenching of fluorescence. Subsequent addition of 2.5 μL of 1 mM gramicidin, a nonspecific monovalent cation ionophore, allows Na^+ cations to move from outside to inside of vesicle membranes to short circuit the membrane potential.
A combined spectrophoto/fluorometer system (Spectramax i3x, Molecular Devices) was used to measure both fluorescence and absorbance of the PA-VSD with 1, 3, 6, and 9 μM concentrations. For fluorescence, the measurement was conducted for the spectral range from 750 to 850 nm at 10-nm increment, and the absorbance was measured in the range from 600 to 900 nm at 5-nm increments. […]

For the compound `CCCN1/C(=C/C=C2\CCCC(/C=C/C3=[N+](CCC)c4ccccc4C3(C)C)=C2Cl)C(C)(C)c2ccccc21.[I-]` [IR780, IR780 perchlorate], in data set [1], the “ratio of absorbance in depolarized states compared to polarized states (Cabs)” value is on record as 0.97 and the “ratio of fluorescence emission in depolarized states compared to polarized states (CF)” value is listed as 0.60.

As for `CCN1/C(=C/C=C/C=C/C=C/C2=[N+](CC)c3ccc4ccccc4c3C2(C)C)C(C)(C)c2c1ccc1ccccc21.[I-]` [PAVSD800-2], in data set [2] (9 μM concentration, absorbance 800 nm, fluorescence 825 nm), the “fluorescence quenching effect relative to absorption change” value was “eight times stronger”. Also, in data set [2] (K+ buffer inside and outside the vesicles, valinomycin and gramicidin added), the “fluorescence change in negative control” value was “absence of a fluorescence change”.
